According to patent US20220117973A1, “THE ATR KINASE INHIBITOR BAY1895344 FOR USE IN THE TREATMENT OF A HYPER-PROLIFERATIVE DISEASE” (Bayer Aktiengesellschaft, priority 2019, published 2022):
Read-outs that look alike come from different tables or passages of the source.

Legend:
[1] = test system: patients with advanced solid tumors; details: for dose-limiting toxicities (DLTs), patients with DLT/cohort: G4 neutropenia
pH2AX and/or pKAP1 = details: at exposures associated with preclinical anti-tumor activity
[2] = 5-80 mg BID cohorts

SMILES: C[C@@H]1COCCN1c1cc(-c2ccnn2C)c2ccnc(-c3ccn[nH]3)c2n1 [BAY 1895344, 2-[(3R)-3-methylmorpholin-4-yl]-4-(1-methyl-1H-pyrazol-5-yl)-8-(1H-pyrazol-5-yl)-1,7-naphthyridine]
- dose limiting toxicity (DLT) ([1]; 60 mg BID and 80 mg BID, 3 days on/11 days off): no DLTs
- dose-limiting toxicities (DLTs), patients with DLT/cohort ([1]; 60 mg cohort, BID, 3 days on/4 days off, G2 fatigue): 2/7
- dose-limiting toxicities (DLTs), patients with DLT/cohort ([1]; 80 mg cohort, BID, 3 days on/4 days off, G4 neutropenia and G4 thrombocytopenia): 2/3
- maximum tolerated dose (MTD) ([1]; 3 on/4 off schedule): 40 mg BID
- dose-limiting toxicities (DLTs) ([1]; 5-40 mg cohorts, BID, 3 days on/4 days off): No dose-limiting toxicities (DLTs) were reported
- most common treatment emergent adverse events ([1]; 5-80 mg BID, 3 days on/4 days off): anemia, neutropenia, nausea and fatigue
- pharmacodynamic modulation in paired tumor biopsies (pH2AX and/or pKAP1): modulation of pH2AX and/or pKAP1
- pharmacokinetics, dose dependence [2]: dose-proportional
